# The supplement of paper PMC12819154, “High-throughput peptide-centric local stability assay extends protein–ligand identification to membrane proteins, tissues and bacteria” (Nature Structural & Molecular Biology, 2025)
# Chains of the proteins cited; added tags and fusions are not shown. Lines headed by an entry give the natural chain unless they say otherwise; changes in a name come on top.
# UniProt Q06547, whole entry: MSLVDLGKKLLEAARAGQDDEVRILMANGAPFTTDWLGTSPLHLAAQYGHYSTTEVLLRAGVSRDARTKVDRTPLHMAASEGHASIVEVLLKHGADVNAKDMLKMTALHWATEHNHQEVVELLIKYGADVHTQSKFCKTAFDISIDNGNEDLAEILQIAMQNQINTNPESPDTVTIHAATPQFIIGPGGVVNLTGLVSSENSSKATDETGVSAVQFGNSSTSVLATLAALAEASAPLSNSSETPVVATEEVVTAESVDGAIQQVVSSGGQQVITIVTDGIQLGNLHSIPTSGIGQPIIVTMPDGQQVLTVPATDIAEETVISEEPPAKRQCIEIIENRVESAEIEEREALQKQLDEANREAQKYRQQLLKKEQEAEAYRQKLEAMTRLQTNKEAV
# UniProt Q03113, whole entry: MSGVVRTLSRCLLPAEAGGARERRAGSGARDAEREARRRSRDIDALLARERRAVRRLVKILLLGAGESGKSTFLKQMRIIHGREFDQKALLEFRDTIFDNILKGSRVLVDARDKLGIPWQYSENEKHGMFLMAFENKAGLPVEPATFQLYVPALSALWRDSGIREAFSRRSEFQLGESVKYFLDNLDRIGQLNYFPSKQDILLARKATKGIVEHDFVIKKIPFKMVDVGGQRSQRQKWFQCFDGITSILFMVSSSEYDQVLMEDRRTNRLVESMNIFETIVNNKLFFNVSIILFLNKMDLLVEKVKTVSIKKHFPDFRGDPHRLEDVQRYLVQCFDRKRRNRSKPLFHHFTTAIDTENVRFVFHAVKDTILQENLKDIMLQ
# UniProt Q04837: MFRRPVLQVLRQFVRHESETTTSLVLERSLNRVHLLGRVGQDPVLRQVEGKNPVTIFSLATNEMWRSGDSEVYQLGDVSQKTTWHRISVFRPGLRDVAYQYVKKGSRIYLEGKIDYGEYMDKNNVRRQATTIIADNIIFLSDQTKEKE
# UniProt Q03060: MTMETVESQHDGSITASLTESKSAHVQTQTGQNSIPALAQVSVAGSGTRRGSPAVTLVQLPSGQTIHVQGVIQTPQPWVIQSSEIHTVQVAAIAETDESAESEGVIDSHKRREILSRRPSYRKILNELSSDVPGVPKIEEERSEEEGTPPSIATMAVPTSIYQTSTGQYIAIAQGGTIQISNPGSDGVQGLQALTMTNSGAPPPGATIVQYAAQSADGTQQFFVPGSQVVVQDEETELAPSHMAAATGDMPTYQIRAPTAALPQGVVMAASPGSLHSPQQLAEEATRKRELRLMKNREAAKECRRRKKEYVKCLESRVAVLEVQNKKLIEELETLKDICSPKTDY
# UniProt Q04656: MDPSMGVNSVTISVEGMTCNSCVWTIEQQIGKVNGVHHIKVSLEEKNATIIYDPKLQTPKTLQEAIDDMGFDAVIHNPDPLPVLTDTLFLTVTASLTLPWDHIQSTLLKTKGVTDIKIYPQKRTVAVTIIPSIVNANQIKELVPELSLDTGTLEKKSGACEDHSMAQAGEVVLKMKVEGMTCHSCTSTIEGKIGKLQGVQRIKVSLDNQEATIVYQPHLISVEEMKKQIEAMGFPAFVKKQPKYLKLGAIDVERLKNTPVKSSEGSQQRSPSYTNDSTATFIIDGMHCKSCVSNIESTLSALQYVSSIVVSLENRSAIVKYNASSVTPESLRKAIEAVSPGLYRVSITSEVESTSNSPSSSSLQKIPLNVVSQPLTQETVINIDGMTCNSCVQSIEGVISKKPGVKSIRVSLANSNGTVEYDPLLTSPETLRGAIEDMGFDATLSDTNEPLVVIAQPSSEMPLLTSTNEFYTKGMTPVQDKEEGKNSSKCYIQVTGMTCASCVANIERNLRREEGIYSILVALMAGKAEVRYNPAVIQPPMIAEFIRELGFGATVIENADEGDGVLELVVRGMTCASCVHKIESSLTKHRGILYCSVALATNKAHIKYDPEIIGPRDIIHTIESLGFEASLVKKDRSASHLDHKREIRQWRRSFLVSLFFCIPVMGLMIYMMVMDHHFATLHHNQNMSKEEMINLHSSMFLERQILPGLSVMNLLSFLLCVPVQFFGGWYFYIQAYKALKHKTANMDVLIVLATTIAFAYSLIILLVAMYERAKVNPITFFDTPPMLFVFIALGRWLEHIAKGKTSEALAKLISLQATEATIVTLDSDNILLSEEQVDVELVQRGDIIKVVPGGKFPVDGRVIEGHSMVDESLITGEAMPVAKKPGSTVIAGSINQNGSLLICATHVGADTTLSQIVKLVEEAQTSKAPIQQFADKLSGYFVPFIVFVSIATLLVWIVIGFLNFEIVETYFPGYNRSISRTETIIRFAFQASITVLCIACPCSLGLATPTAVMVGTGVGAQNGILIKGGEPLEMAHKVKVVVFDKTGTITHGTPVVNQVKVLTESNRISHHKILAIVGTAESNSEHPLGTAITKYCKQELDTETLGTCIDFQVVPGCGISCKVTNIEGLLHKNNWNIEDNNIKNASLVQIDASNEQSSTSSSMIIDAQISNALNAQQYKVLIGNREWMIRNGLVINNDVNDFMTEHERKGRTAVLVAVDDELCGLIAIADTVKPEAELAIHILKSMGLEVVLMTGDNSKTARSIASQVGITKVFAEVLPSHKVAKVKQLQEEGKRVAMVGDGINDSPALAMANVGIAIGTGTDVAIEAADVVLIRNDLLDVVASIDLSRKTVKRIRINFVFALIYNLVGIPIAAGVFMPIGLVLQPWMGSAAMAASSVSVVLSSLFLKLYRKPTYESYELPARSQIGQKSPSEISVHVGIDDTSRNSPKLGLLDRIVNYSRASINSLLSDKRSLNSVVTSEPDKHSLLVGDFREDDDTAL
# UniProt Q05D32: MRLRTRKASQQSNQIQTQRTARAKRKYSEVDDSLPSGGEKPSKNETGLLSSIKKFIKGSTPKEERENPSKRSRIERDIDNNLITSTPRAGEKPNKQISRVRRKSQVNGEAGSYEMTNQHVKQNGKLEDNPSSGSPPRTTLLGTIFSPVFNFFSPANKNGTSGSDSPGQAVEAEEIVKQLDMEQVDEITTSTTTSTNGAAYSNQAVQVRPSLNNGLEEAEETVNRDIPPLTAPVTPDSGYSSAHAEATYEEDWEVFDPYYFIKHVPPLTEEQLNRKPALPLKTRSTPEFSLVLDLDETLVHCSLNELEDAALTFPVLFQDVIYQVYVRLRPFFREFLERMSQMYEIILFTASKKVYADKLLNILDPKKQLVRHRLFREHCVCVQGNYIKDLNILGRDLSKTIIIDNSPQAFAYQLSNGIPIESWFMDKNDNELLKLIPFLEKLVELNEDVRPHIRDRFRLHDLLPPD
# UniProt Q01105, whole entry: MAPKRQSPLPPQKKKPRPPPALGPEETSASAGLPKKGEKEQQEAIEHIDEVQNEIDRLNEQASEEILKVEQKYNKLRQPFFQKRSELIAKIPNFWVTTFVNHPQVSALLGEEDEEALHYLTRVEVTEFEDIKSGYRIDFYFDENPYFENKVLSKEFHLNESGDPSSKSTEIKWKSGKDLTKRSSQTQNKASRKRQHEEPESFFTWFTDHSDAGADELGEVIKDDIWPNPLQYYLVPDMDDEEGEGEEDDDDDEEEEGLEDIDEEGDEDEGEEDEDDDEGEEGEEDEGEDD
# UniProt Q13033: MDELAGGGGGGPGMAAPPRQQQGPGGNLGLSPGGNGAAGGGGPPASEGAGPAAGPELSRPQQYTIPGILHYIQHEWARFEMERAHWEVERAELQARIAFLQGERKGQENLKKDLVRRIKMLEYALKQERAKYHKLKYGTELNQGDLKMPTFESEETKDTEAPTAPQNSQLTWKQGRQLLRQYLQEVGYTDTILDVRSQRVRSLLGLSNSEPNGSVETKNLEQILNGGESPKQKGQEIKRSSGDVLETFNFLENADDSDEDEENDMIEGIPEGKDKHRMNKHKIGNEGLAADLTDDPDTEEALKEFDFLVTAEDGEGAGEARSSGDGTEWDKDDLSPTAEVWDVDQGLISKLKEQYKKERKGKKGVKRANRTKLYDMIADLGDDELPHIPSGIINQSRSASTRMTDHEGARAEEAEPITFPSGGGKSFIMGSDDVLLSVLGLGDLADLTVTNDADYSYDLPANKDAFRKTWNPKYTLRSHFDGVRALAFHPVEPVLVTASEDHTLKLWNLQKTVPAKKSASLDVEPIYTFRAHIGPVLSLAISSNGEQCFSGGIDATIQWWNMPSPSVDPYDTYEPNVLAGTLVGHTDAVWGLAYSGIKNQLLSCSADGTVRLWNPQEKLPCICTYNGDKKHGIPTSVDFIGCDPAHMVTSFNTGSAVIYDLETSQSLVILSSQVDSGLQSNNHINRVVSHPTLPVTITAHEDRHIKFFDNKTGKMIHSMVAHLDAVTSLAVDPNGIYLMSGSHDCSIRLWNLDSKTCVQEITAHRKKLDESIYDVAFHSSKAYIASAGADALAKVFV
# UniProt P86452: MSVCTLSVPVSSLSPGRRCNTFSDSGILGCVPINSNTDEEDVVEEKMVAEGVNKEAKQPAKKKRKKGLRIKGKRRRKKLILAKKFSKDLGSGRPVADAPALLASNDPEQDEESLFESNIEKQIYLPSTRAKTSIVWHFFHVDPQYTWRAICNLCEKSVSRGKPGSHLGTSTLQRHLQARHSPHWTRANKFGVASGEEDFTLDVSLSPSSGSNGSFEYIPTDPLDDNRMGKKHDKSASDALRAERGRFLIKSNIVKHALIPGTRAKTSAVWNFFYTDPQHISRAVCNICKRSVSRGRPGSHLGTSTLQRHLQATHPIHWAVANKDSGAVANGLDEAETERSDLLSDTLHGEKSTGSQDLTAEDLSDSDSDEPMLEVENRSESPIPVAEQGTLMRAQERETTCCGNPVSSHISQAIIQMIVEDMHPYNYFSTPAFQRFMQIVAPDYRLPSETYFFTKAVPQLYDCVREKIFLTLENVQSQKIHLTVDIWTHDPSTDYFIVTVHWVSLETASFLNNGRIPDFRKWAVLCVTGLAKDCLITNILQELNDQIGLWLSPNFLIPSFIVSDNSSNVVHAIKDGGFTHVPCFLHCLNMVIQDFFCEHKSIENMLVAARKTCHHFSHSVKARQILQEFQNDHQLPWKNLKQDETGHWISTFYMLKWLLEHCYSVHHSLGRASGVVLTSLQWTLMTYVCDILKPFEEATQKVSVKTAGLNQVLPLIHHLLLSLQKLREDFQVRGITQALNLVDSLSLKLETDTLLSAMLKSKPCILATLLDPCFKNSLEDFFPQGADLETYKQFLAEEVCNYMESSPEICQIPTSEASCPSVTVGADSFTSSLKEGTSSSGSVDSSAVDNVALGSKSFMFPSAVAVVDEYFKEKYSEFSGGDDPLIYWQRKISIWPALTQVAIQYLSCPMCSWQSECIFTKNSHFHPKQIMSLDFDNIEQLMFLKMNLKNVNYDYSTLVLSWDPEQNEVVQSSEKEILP
# UniProt Q00325: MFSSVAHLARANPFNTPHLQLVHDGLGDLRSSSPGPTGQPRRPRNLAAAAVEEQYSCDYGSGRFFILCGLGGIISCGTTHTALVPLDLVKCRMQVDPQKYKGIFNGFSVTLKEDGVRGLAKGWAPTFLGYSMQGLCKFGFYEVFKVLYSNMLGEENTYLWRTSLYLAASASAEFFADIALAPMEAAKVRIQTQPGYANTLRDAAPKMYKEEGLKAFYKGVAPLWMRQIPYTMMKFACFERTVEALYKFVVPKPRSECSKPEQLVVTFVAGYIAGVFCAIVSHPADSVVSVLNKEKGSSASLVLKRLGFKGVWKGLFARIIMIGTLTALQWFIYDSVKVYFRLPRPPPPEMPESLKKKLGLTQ
# UniProt Q10713: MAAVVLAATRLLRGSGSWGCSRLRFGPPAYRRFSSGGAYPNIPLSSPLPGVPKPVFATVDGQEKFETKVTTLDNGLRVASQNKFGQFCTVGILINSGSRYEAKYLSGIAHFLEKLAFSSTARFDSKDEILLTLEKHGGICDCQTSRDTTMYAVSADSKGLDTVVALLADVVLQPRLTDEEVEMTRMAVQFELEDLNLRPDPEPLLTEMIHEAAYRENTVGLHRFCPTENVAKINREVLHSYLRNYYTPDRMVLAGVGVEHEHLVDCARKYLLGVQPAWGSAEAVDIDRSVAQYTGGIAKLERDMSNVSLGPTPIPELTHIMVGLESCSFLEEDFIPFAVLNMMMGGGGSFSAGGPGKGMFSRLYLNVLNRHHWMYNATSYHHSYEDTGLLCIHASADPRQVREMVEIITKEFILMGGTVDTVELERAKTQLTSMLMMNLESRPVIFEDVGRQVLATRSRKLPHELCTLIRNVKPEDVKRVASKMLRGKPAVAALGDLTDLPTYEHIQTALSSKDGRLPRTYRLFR
# UniProt Q02539, whole entry: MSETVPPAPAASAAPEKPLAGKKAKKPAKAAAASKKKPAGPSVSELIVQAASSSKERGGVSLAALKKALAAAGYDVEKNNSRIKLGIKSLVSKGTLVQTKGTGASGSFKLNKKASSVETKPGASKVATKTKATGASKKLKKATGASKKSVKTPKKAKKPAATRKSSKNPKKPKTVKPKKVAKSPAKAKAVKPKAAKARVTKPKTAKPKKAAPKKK
# UniProt P84085: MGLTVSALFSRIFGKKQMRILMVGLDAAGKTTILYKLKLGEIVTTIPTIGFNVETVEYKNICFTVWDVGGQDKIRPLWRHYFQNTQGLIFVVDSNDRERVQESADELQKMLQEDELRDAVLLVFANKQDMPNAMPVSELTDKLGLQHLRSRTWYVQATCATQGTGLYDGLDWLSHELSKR
# Some of the results follow. Small differences around the control level are noise.
# Compound: Cc1nc(Nc2ncc(C(=O)Nc3c(C)cccc3Cl)s2)cc(N2CCN(CCO)CC2)n1 [dasatinib]
# Experiment: log2 fold change of tryptic peptide abundance, ligand vs vehicle (limited proteolysis) (log2 ratio); higher = more trypsin-susceptible (destabilized)
# Conditions: ligand concentration: 5 uM; sample: K562 cleared lysate
row,Target,log2 fold change
1,"GABPB1 (peptide sequence: TPLHMAASEGHASIVEVLLK, peptide start residue: 73) (UniProt Q06547)",0.355
2,"GNA12 (peptide sequence: CLLPAEAGGAR, peptide start residue: 11) (UniProt Q03113)",0.424
3,"GABPA (peptide sequence: YYYDGDMICKVQGK, peptide start residue: 380) (UniProt Q06546)",-0.2
4,"DGCR2 (peptide sequence: CNPGQFACR, peptide start residue: 30) (UniProt P98153)",0.197
5,"UniProt Q02386 (peptide sequence: YQDSVVNIQR, peptide start residue: 118)",-0.285
6,"SSBP1 (peptide sequence: DVAYQYVK, peptide start residue: 96) (UniProt Q04837)",-0.128
7,"CREM (peptide sequence: KILNELSSDVPGVPK, peptide start residue: 123) (UniProt Q03060)",0.11
8,"ATP7A (peptide sequence: SGACEDHSMAQAGEVVLK, peptide start residue: 157) (UniProt Q04656)",0.218
9,"CTDSPL2 (peptide sequence: KYSEVDDSLPSGGEKPSK, peptide start residue: 26) (UniProt Q05D32)",0.327
10,"FPGS (peptide sequence: VLLFNATGDRDPAALLK, peptide start residue: 410) (UniProt Q05932)",0.154
11,"UniProt Q05519 (peptide sequence: SKTPPKSYSTAR, peptide start residue: 323)",0.292
12,"NFX1 (peptide sequence: LKCEWSNR, peptide start residue: 188) (UniProt Q12986)",0.218
13,"FMR1 (peptide sequence: ENSTHFSQPNSTK, peptide start residue: 360) (UniProt Q06787)",0.13
14,"PLCB2 (peptide sequence: QMTENLER, peptide start residue: 1089) (UniProt Q00722)",0.397
15,"POLE (peptide sequence: FLLAYKEER, peptide start residue: 1571) (UniProt Q07864)",-0.358
16,"SOS1 (peptide sequence: TPDVFSSSPLHLQPPPLGKK, peptide start residue: 1222) (UniProt Q07889)",-0.995
17,"SET (peptide sequence: LNEQASEEILKVEQK, peptide start residue: 58) (UniProt Q01105)",0.268
18,"STRN3 (peptide sequence: MPTFESEETK, peptide start residue: 148) (UniProt Q13033)",0.23
19,"HTD2 (peptide sequence: TVMEGWVK, peptide start residue: 152) (UniProt P86397)",0.285
20,"UniProt Q05481 (peptide sequence: CGHENLQLR, peptide start residue: 106)",0.288
21,"UniProt Q03923 (peptide sequence: NVMLENYR, peptide start residue: 31)",-0.157
22,"ZBED6 (peptide sequence: GRPGSHLGTSTLQR, peptide start residue: 295) (UniProt P86452)",-0.205
23,"SLC25A3 (peptide sequence: GVAPLWMR, peptide start residue: 219) (UniProt Q00325)",0.00236
24,"PMPCA (peptide sequence: SVAQYTGGIAKLER, peptide start residue: 289) (UniProt Q10713)",-0.969
25,"UniProt Q02539 (peptide sequence: ALAAAGYDVEK, peptide start residue: 65)",0.0354
26,"UniProt P84085 (peptide sequence: MLQEDELR, peptide start residue: 110)",-0.166

# Two entries drawn at random from those above:
row,Target,log2 fold change
19,"HTD2 (peptide sequence: TVMEGWVK, peptide start residue: 152) (UniProt P86397)",0.285
16,"SOS1 (peptide sequence: TPDVFSSSPLHLQPPPLGKK, peptide start residue: 1222) (UniProt Q07889)",-0.995
